Structures can show the parent of a compound that is named as a salt. This is one part of the list. This data set is noisy: repeats of one test often differ as much as different tests do.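 Fusion between ACE2-bearing and full-length-spike-bearing U2OS cells was measured by imaging as the percentage of nuclei with both cell types' fluorescent markers. An inhibitory hit is a non-toxic compound whose fusion z-score is below -3, more than three standard deviations beneath the plate's DMSO wells.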
tested on: U2OS ACE2 x SARS-CoV-2 spike co-culture; experiment: cell-cell fusion (fraction fused) z-score vs plate DMSO control; higher = more fusion; conditions: 30 µM; 5 h; toxicity class: non-toxic, passed QC

Row | Compound | cell-cell fusion (z-score)
1 | Nc1cc(N2CCCCC2)nc(N)[n+]1[O-] [Minoxidil] | inactive: 2.52
2 | CNCCCC1c2ccccc2C=Cc2ccccc21.Cl | inactive: 2.39
3 | CNCCCC1c2ccccc2C=Cc2ccccc21.Cl [Protriptyline hydrochloride] | inactive: 1.64
4 | Br.CN(C)CCCC1(c2ccc(F)cc2)OCc2cc(C#N)ccc21 (stereo unspecified) | inactive: 2.29
5 | Br.CN(C)CCCC1(c2ccc(F)cc2)OCc2cc(C#N)ccc21 (stereo unspecified) [Citalopram hydrobromide] | inactive: 1.03
6 | Nc1nc(F)nc2c1ncn2[C@@H]1O[C@H](CO)[C@@H](O)[C@@H]1O [Fludarabine] | inactive: 0.73
7 | COc1cc(O)cc(C(=O)c2ccccc2)c1S(=O)(=O)O | inactive: 2.35
8 | CN(C)CCn1nnnc1SCC1=C(C(=O)O)N2C(=O)[C@@H](NC(=O)Cc3csc(N)n3)[C@H]2SC1.Cl.Cl [Cefotiam hydrochloride] | inactive: 2.58
9 | CO[C@@]12[C@H](COC(N)=O)C3=C(C(=O)C(C)=C(N)C3=O)N1C[C@@H]1N[C@@H]12 | inactive: 1.34
10 | Cc1ccc(NC(=O)c2ccc(CN3CC[C@H](N(C)C)C3)c(C(F)(F)F)c2)cc1Nc1ncc(-c2cncnc2)cn1 [Bafetinib (INNO-406)] | inactive: 3.41
11 | CC(=O)O[C@]1(C(C)=O)CC[C@H]2[C@@H]3C[C@H](C)C4=CC(=O)CC[C@]4(C)[C@H]3CC[C@@]21C [Medroxyprogesterone Acetate] | inactive: 2.15
12 | Cc1cccc(C(=O)O)c1O | inactive: 1.4
13 | Cl.Nc1ccn([C@@H]2O[C@H](CO)[C@@H](O)[C@@H]2O)c(=O)n1 [Cytosine-1-beta-D-arabinofuranoside hydrochloride] | inactive: 1.82
14 | C=C1/C(=C\C=C2/CCC[C@]3(C)[C@@H]([C@H](C)CCCC(C)(C)O)CC[C@@H]23)C[C@@H](O)C[C@@H]1O [Calcitriol] | inactive: -1.02
15 | Oc1ccc(OCc2ccccc2)cc1 [Monobenzone] | inactive: 1.75
16 | O=c1c(-c2ccccc2)coc2ccccc12 | inactive: 2.97
17 | O=C(/C=C/C#Cc1cccc(NS(=O)(=O)c2ccccc2)c1)NO [Oxamflatin] | inactive: 1.83
18 | CCCCOc1ccc(OCCCN2CCOCC2)cc1.Cl [Pramoxine hydrochloride] | inactive: 2.34
19 | O=C(Nc1cc(C(F)(F)F)cc(C(F)(F)F)c1)Nc1c(Br)cc(Br)cc1-c1nnn[nH]1 | inactive: 5.09
20 | N=C1NC(=O)N2CC12 (stereo unspecified) | inactive: 3.69
21 | O=C(O)c1cc(O)c2ccccc2n1 [Kynurenic acid] | inactive: 2.97
22 | C#CCN(C)CC1=Cc2ccccc2Oc2ccccc21.O=C(O)/C=C\C(=O)O | inactive: 1.98
23 | CC(C)C(C)/C=C/C(C)C1CCC2C3=CC=C4CC(O)CCC4(C)C3CCC21C (stereo unspecified) | inactive: 0.599
24 | CC[C@@H](C(=O)C(C)[C@@H](O)[C@H](C)CCc1ccc(C)c(O)c1C(=O)[O-])C1OC(CC)(C2CC[C@](O)(CC)[C@H](C)O2)C[C@@H]1C.[Na+] (stereo partly specified) | active: -11.6

Row | Compound | cell-cell fusion (z-score)
25 | CC(C)COCC(CN(Cc1ccccc1)c1ccccc1)N1CCCC1.Cl (stereo unspecified) | inactive: 0.709
26 | CC(C)COCC(CN(Cc1ccccc1)c1ccccc1)N1CCCC1.Cl (stereo unspecified) [Bepridil hydrochloride] [listing 1 of 2 here] | inactive: 2.25
27 | Br.COc1ccc2c(c1)C13CCCCC1C(C2)N(C)CC3 (stereo unspecified) [Dextromethorphan hydrobromide monohydrate] | inactive: 2.26
28 | CCCC(CCC)C(=O)[O][Na] [Valproic acid sodium salt (Sodium valproate)] | inactive: 1.23
29 | C=C[C@H]1C[N@@]2CC[C@H]1C[C@H]2[C@H](O)c1ccnc2ccccc12 | inactive: 0.517
30 | COc1cc(-c2coc3cc(OC)c(OC)c(OC)c3c2=O)cc(OC)c1OC | inactive: 1.31
31 | Oc1cc(O)c2c(c1)O[C@H](c1cc(O)c(O)c(O)c1)[C@H](O)C2 | inactive: 2.6
32 | C[C@@H](O)[C@H]1C(=O)N2C(C(=O)O)=C(SC3CN[C@H](C(=O)N(C)C)C3)[C@H](C)[C@H]12 (stereo partly specified) | inactive: 2.4
33 | CCC(C)n1ncn(-c2ccc(N3CCN(c4ccc(OC[C@H]5CO[C@](Cn6cncn6)(c6ccc(Cl)cc6Cl)O5)cc4)CC3)cc2)c1=O.Cl.Cl (stereo partly specified) | inactive: 3.29
34 | NC[C@H](O)c1ccc(O)c(O)c1.O.O=C(O)[C@H](O)[C@@H](O)C(=O)O [Noradrenaline bitartrate monohydrate] | active: -3
35 | Cl.OC[C@H]1NC[C@@H](O)[C@@H]1O [1,4-Dideoxy-1,4-imino-D-arabinitol] | inactive: 3.19
36 | O=C([O-])Cc1ccccc1Nc1c(Cl)cccc1Cl.[Na+] [Diclofenac sodium] | inactive: 4.03
37 | CN(C)CCOC(C)(c1ccccc1)c1ccccn1.O=C(O)CCC(=O)O (stereo unspecified) [Doxylamine succinate] | inactive: 1.58
38 | CN(C)CCOC(C)(c1ccccc1)c1ccccn1.O=C(O)CCC(=O)O (stereo unspecified) | inactive: 1.58
39 | CCCCCCNC(=O)n1cc(F)c(=O)[nH]c1=O | inactive: 2.59
40 | CCCCCCNC(=O)n1cc(F)c(=O)[nH]c1=O [Carmofur] | inactive: 1.86
41 | COc1ccccc1CNCCCCCCNCCCCCCCCNCCCCCCNCc1ccccc1OC.Cl.Cl.Cl.Cl [Methoctramine tetrahydrochloride] | inactive: 2.19
42 | N[C@@H](Cn1ccc(=O)c(O)c1)C(=O)O [L-Mimosine from Koa hoale seeds] | inactive: 1.8
43 | O=C(O)C1=C[C@@H](O)[C@@H](O)[C@H](O)C1 | inactive: 1.99
44 | Cc1cc(C)c(/C=C2\C(=O)Nc3ccc(Cl)cc32)[nH]1 | inactive: 4.14
45 | CCC1(c2ccc(N)cc2)CCC(=O)NC1=O (racemic) [(±)-p-Aminoglutethimide] | inactive: 1.32
46 | O=C1CN(/N=C/c2ccc([N+](=O)[O-])o2)C(=O)N1 | inactive: 2.45
47 | Cc1c(NC(=O)OC[C@@H]2COCCN2)cn2ncnc(Nc3ccc4c(cnn4Cc4cccc(F)c4)c3)c12.Cl | inactive: 1.03
48 | C[N+]1([O-])[C@@H]2CC[C@H]1C[C@@H](OC(=O)C(CO)c1ccccc1)C2 (stereo partly specified) | inactive: -1.46

Some of the entries so far, as tab-separated lines:
Row	Compound	cell-cell fusion (z-score)
25	CC(C)COCC(CN(Cc1ccccc1)c1ccccc1)N1CCCC1.Cl (stereo unspecified)	inactive: 0.709
26	CC(C)COCC(CN(Cc1ccccc1)c1ccccc1)N1CCCC1.Cl (stereo unspecified) [Bepridil hydrochloride] [listing 1 of 2 here]	inactive: 2.25
28	CCCC(CCC)C(=O)[O][Na] [Valproic acid sodium salt (Sodium valproate)]	inactive: 1.23
30	COc1cc(-c2coc3cc(OC)c(OC)c(OC)c3c2=O)cc(OC)c1OC	inactive: 1.31
31	Oc1cc(O)c2c(c1)O[C@H](c1cc(O)c(O)c(O)c1)[C@H](O)C2	inactive: 2.6
32	C[C@@H](O)[C@H]1C(=O)N2C(C(=O)O)=C(SC3CN[C@H](C(=O)N(C)C)C3)[C@H](C)[C@H]12 (stereo partly specified)	inactive: 2.4
33	CCC(C)n1ncn(-c2ccc(N3CCN(c4ccc(OC[C@H]5CO[C@](Cn6cncn6)(c6ccc(Cl)cc6Cl)O5)cc4)CC3)cc2)c1=O.Cl.Cl (stereo partly specified)	inactive: 3.29
34	NC[C@H](O)c1ccc(O)c(O)c1.O.O=C(O)[C@H](O)[C@@H](O)C(=O)O [Noradrenaline bitartrate monohydrate]	active: -3
35	Cl.OC[C@H]1NC[C@@H](O)[C@@H]1O [1,4-Dideoxy-1,4-imino-D-arabinitol]	inactive: 3.19
36	O=C([O-])Cc1ccccc1Nc1c(Cl)cccc1Cl.[Na+] [Diclofenac sodium]	inactive: 4.03
37	CN(C)CCOC(C)(c1ccccc1)c1ccccn1.O=C(O)CCC(=O)O (stereo unspecified) [Doxylamine succinate]	inactive: 1.58
38	CN(C)CCOC(C)(c1ccccc1)c1ccccn1.O=C(O)CCC(=O)O (stereo unspecified)	inactive: 1.58
39	CCCCCCNC(=O)n1cc(F)c(=O)[nH]c1=O	inactive: 2.59
40	CCCCCCNC(=O)n1cc(F)c(=O)[nH]c1=O [Carmofur]	inactive: 1.86
41	COc1ccccc1CNCCCCCCNCCCCCCCCNCCCCCCNCc1ccccc1OC.Cl.Cl.Cl.Cl [Methoctramine tetrahydrochloride]	inactive: 2.19
42	N[C@@H](Cn1ccc(=O)c(O)c1)C(=O)O [L-Mimosine from Koa hoale seeds]	inactive: 1.8
43	O=C(O)C1=C[C@@H](O)[C@@H](O)[C@H](O)C1	inactive: 1.99
45	CCC1(c2ccc(N)cc2)CCC(=O)NC1=O (racemic) [(±)-p-Aminoglutethimide]	inactive: 1.32
46	O=C1CN(/N=C/c2ccc([N+](=O)[O-])o2)C(=O)N1	inactive: 2.45
47	Cc1c(NC(=O)OC[C@@H]2COCCN2)cn2ncnc(Nc3ccc4c(cnn4Cc4cccc(F)c4)c3)c12.Cl	inactive: 1.03

Remaining list, next part.

Row | Compound | cell-cell fusion (z-score)
49 | CO[C@]1(NC(=O)C2S\C(S2)=C(/C(N)=O)C(O)=O)[C@H]2SCC(CSc3nnnn3C)=C(N2C1=O)C(O)=O (stereo partly specified) [Cefotetan] | inactive: 1.01
50 | Cc1cc(C(=O)NOCCO)c(Nc2ccc(I)cc2F)n(C)c1=O | inactive: 1.13
51 | CCCCNc1ccc(C(=O)OCCN(C)C)cc1.Cl | inactive: 2.5
52 | CCCCNc1ccc(C(=O)OCCN(C)C)cc1.Cl [Tetracaine hydrochloride] | inactive: -0.0102
53 | O=C1[C@H](CC[C@H](O)c2ccc(F)cc2)[C@@H](c2ccc(O)cc2)N1c1ccc(F)cc1 [Ezetimibe] | inactive: -1.61
54 | O=C1C2CC3CC1CC(O)(C3)C2 | inactive: 2.08
55 | C[C@H](c1ccc(F)cc1CCCC(=O)O)N(c1cc(F)ccc1F)S(=O)(=O)c1ccc(Cl)cc1 | inactive: 2.86
56 | NCCCC(N)C(=O)O.NCCCC(N)C(=O)O.O=C(O)CCC(=O)C(=O)O | inactive: 0.648
57 | CCc1cc2c(cc1N1CCC(N3CCOCC3)CC1)C(C)(C)c1[nH]c3cc(C#N)ccc3c1C2=O [Alectinib] | inactive: -2.02
58 | C[n+]1ccccc1/C=N/O.[Cl-] [Pralidoxime Chloride] | inactive: 2.45
59 | Fc1ccc2[nH]c(CN3CCN(c4ccccn4)CC3)cc2c1 | inactive: -0.481
60 | Cl.O=C1Cc2cc(CCN3CCN(c4nsc5ccccc45)CC3)c(Cl)cc2N1 [Ziprasidone hydrochloride] | active: -3.56
61 | CC(C)(C)C(=O)C(Oc1ccc(Cl)cc1)n1cncn1 (stereo unspecified) | inactive: 3.35
62 | O=C(Cc1ccccc1Nc1c(Cl)cccc1Cl)[O][Na] [Diclofenac sodium] | inactive: 3.17
63 | Cl.Clc1ccc(C(OCCN2CCCCC2)c2ccccc2)cc1 (stereo unspecified) | inactive: 0.23
64 | C[C@@H]1C[C@H]2[C@@H]3CCC4=CC(=O)C=C[C@]4(C)[C@@]3(F)[C@@H](O)C[C@]2(C)[C@@]1(O)C(=O)CO [Dexamethasone] | inactive: 3.14
65 | CC(=O)N(CC(O)CN(C(C)=O)c1c(I)c(C(=O)NCC(O)CO)c(I)c(C(=O)NCC(O)CO)c1I)c1c(I)c(C(=O)NCC(O)CO)c(I)c(C(=O)NCC(O)CO)c1I (stereo unspecified) | inactive: 2.66
66 | CC(=O)OCC(=O)NCCCOc1cccc(CN2CCCCC2)c1.Cl | inactive: 0.0992
67 | Cl.N[C@H](Cc1ccccc1)C(=O)O | inactive: 0.519
68 | COc1ccc(-c2cc(=O)c3c(O)c(OC)c(OC)c(OC)c3o2)cc1 | inactive: 2.37
69 | CC(C)COCC(CN(Cc1ccccc1)c1ccccc1)N1CCCC1.Cl (stereo unspecified) [Bepridil hydrochloride] [listing 2 of 2 here] | inactive: -2.19
70 | Cc1nnc(NS(=O)(=O)c2ccc(N)cc2)s1 [Sulfamethizole] | inactive: 2.64
71 | Cl.Cl.c1cnc2cc3c(cc2n1)C1CNCC3C1 [Varenicline] | inactive: 2.52

Source: the supplement of paper PMC8104966
